The list shows a part of the results.
Tests used:
Test in all cases: log2 fold change, soluble protein after heating vs DMSO (PISA); higher = thermal stabilisation; K562 lysate, 10 uM; active = over 0.2 and 3.5 SD of the protein, either way, in both replicates (recomputed)
erlotinib = compound: C#Cc1cccc(Nc2ncnc3cc(OCCOC)c(OCCOC)cc23)c1 [erlotinib]
Procedure, shortened: (§1)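 K562 pellets were dounce-homogenised in PBS pH 7.4 containing 1 mM MgCl2, and the crude extract, at 1 mg/mL protein, was exposed to 10 μM compound for 30 min. Aliquots were heated for 3 min across 48°C-58°C, pooled, brought to 0.5% NP-40 at 4°C and spun at 21,000xg for 90 min, with the supernatant taken as soluble protein. TMTpro 16plex LC-MS/MS with equalised channel sums quantified that protein. Values are log-two fold changes in thermal stability relative to solvent controls, taken from duplicates.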

Sequences of proteins named here, by UniProt entry; tags and fusion partners are left off. A change or cut given only in a name is not applied to a line headed by its entry.
UniProt Q9NY33: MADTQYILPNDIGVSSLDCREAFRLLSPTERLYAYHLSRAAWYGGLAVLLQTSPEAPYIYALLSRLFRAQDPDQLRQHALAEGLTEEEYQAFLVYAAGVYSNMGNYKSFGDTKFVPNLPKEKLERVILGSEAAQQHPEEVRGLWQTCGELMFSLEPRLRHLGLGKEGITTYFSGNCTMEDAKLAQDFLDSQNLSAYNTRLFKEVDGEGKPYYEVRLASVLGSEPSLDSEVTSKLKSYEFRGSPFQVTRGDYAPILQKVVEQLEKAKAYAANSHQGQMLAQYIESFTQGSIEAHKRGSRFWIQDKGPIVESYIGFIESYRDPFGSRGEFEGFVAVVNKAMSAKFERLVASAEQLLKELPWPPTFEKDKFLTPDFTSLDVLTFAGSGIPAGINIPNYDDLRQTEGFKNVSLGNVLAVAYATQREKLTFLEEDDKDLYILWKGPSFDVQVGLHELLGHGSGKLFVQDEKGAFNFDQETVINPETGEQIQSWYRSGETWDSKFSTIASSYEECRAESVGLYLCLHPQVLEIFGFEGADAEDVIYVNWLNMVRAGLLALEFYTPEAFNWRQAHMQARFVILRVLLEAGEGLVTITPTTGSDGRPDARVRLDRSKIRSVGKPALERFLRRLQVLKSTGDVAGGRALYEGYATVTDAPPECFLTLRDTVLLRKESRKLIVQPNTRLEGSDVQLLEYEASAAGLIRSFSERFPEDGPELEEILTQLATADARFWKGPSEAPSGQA
UniProt Q96F86: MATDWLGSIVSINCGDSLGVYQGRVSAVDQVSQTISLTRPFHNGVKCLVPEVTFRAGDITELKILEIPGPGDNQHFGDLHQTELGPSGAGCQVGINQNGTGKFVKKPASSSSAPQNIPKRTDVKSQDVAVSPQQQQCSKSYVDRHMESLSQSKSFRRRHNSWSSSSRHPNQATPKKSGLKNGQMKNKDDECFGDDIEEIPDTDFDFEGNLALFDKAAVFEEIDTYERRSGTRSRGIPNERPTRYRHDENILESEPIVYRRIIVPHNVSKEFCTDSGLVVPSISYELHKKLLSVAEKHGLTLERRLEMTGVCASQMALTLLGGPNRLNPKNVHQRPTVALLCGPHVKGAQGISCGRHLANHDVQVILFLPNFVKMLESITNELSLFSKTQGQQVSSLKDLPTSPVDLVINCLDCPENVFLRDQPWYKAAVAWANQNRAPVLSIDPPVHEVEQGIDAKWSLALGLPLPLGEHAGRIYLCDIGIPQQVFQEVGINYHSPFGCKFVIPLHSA
UniProt Q9UNI6, whole entry, looked up: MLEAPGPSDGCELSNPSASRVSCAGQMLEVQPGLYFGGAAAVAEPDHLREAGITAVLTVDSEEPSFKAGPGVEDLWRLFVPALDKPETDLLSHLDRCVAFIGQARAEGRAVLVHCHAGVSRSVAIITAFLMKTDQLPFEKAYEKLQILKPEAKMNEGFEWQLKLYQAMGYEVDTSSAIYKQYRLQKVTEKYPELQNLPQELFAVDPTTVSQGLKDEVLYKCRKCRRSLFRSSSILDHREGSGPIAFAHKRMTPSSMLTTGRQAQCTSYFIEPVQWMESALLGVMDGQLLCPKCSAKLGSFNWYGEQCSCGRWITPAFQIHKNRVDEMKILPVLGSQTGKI
UniProt Q9Y295: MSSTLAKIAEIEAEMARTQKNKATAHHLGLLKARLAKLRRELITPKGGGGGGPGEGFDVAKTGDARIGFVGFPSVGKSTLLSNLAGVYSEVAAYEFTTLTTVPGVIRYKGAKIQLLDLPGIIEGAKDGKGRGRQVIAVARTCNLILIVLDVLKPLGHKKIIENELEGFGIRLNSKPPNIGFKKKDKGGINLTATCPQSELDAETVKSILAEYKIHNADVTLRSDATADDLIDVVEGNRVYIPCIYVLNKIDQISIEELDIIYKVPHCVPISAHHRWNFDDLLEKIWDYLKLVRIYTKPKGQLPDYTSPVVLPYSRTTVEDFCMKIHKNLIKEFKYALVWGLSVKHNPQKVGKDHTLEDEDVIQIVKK
UniProt Q99956: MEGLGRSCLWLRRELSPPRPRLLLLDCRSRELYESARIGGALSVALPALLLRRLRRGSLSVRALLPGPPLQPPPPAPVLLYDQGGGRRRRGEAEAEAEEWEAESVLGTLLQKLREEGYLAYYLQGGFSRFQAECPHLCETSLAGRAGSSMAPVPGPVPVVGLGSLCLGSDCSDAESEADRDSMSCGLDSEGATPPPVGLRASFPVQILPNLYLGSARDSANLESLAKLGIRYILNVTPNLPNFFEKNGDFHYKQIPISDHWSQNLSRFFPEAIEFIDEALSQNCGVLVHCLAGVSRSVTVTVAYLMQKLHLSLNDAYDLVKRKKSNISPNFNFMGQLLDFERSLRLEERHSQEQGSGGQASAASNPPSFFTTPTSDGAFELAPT
UniProt O95905: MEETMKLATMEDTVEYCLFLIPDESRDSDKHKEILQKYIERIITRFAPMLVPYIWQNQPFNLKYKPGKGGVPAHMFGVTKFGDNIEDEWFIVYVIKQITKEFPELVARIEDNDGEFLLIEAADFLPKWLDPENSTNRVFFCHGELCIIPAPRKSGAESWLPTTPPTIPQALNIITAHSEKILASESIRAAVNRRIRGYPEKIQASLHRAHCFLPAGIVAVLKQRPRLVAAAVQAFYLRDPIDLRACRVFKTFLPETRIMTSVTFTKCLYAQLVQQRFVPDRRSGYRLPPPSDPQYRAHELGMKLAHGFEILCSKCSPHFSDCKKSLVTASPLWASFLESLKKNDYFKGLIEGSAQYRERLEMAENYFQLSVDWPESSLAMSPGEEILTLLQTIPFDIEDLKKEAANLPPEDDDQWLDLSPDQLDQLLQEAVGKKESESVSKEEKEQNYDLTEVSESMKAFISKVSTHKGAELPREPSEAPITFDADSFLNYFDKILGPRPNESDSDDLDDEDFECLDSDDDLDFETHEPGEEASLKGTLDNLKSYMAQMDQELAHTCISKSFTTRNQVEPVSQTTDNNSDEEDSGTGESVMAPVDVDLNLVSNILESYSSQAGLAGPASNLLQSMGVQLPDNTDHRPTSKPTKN
UniProt Q96DC8: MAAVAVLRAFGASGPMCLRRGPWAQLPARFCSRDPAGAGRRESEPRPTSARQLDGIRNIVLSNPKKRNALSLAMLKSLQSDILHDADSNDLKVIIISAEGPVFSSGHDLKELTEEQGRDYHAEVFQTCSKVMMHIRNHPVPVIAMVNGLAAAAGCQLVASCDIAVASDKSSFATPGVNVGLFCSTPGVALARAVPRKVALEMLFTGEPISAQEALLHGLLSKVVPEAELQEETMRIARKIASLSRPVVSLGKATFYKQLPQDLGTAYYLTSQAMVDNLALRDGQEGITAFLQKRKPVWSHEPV
UniProt Q8N6R0: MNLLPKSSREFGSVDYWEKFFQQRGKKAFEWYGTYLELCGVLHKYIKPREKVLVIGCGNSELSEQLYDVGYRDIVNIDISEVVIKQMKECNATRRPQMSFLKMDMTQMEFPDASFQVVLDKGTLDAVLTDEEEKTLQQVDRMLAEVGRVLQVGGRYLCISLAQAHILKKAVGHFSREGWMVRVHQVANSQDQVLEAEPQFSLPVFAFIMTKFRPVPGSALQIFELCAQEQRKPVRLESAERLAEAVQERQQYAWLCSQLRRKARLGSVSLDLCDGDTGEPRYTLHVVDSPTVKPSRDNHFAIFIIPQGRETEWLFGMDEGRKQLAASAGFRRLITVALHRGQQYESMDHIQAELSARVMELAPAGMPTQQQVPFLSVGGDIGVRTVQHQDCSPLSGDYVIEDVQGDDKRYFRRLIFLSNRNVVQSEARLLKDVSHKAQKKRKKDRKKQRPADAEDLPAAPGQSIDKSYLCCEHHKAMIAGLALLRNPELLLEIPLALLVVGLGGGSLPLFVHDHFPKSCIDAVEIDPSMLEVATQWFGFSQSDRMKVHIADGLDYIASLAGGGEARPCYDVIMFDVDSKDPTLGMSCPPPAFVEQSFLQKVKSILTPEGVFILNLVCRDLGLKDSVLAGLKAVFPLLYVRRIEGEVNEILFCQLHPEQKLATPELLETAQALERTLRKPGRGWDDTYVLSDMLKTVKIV
UniProt Q96EV8: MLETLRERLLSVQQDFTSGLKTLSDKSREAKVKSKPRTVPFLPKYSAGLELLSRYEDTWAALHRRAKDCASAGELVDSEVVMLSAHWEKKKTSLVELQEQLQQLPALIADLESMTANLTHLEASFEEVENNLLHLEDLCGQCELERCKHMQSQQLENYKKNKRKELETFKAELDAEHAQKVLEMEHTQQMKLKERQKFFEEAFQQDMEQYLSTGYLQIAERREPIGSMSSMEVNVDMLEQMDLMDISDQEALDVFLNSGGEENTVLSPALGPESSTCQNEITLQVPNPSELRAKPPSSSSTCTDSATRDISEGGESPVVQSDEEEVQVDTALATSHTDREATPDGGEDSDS
UniProt Q5VTE0, whole entry, looked up: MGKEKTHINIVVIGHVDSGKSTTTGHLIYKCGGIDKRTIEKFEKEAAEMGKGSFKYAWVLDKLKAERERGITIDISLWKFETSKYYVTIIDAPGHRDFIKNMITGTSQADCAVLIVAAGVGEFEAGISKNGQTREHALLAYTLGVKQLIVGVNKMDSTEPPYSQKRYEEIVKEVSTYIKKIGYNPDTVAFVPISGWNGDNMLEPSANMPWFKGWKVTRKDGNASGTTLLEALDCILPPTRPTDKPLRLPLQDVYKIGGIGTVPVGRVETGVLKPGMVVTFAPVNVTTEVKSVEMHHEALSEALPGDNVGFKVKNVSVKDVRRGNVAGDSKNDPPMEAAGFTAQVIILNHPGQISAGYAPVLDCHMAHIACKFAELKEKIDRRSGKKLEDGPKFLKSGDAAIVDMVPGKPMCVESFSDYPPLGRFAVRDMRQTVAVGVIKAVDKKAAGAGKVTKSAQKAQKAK
UniProt O00559: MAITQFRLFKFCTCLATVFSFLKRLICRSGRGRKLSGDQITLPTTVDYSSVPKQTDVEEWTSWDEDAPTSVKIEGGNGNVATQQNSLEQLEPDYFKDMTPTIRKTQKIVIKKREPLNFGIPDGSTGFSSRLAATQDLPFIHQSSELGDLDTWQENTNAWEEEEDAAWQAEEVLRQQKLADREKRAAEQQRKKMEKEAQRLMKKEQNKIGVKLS
UniProt Q16610: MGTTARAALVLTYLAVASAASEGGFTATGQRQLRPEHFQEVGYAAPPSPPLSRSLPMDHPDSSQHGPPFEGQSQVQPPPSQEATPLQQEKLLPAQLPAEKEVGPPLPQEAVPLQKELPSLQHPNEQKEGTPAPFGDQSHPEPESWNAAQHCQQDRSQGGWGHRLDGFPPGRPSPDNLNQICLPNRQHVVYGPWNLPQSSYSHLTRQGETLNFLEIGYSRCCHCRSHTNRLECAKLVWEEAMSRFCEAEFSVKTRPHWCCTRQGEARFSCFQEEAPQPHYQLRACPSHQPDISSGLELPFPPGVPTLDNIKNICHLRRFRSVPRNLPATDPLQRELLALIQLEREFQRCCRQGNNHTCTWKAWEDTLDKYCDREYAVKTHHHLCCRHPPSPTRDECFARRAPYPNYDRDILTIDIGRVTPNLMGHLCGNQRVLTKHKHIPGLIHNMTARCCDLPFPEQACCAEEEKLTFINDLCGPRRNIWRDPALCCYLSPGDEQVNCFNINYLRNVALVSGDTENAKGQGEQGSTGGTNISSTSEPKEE
UniProt Q56P03: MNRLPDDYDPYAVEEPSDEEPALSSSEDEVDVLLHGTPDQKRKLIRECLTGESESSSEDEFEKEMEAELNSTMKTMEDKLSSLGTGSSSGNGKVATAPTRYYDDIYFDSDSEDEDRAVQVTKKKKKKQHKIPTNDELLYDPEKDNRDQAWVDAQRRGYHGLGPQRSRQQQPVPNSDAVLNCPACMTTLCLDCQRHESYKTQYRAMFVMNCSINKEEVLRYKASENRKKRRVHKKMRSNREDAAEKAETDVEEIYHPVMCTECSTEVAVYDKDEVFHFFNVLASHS

[1] = compound: C/C(=N\NC(=O)C1=CC(=CC=C1)S(=O)(=O)N2CCOCC2)/C3=C(C=CC(=C3)Cl)O
Procedure, shortened: as §1

[2] = compound: C1=CC(=CC=C1C2=NC3=C(N2)C=C(C=C3)C(=O)N)OC4=CC=C(C=C4)Cl
Procedure, shortened: as §1

[3] = compound: C1=CC2=C(C=CC(=C2)/C=C\3/C(=O)NC(=NCC4=CC=CS4)S3)N=C1
Procedure, shortened: as §1

[4] = compound: C1=CC2=NC=CN=C2C=C1/C=C/3\C(=O)NC(=O)S3
Procedure, shortened: as §1

[5] = compound: C1=CC=C(C=C1)C2=NC(=C(N2)C3=CC=NC=C3)C4=CC(=C(C=C4)Cl)O
Procedure, shortened: as §1

[6] = compound: C1=CC=C2C(=C1)C3=NNC4=CC=CC(=C43)C2=O
Procedure, shortened: as §1

[7] = compound: C1CCN(C1)C(=O)NC2=CC=CC(=C2)NC3=NC=C(C(=N3)NCCC4=CN=CN4)Br
Procedure, shortened: as §1

[8] = compound: C1CN(CCC1(CC2=CC=C(C=C2)Cl)N)C3=NC=NC4=C3C=CN4
Procedure, shortened: as §1

IRAK-1-4 Inhibitor I = compound: C1COCCN1CCN2C3=CC=CC=C3N=C2NC(=O)C4=CC(=CC=C4)[N+](=O)[O-] [IRAK-1-4 Inhibitor I]
Procedure, shortened: as §1

ibrutinib = compound: C=CC(=O)N1CCC[C@@H](n2nc(-c3ccc(Oc4ccccc4)cc3)c3c(N)ncnc32)C1 [ibrutinib]
Procedure, shortened: as §1

[9] = compound: CC(=O)c1cnc2ccc(-c3cc(Cl)c(O)c(Cl)c3)nc2c1N[C@H]1CC[C@H](CN(C)C)CC1
Procedure, shortened: as §1

ralimetinib = compound: CC(C)(C)Cn1c(N)nc2ccc(-c3[nH]c(C(C)(C)C)nc3-c3ccc(F)cc3)nc21 [ralimetinib]
Procedure, shortened: as §1

[10] = compound: CC(C)(O)CC(=O)NCCn1ccc2ncnc(Nc3ccc(Oc4cccc(C(F)(F)F)c4)c(Cl)c3)c21
Procedure, shortened: as §1

[11] = compound: CC(C)C1=C2N=C(C=C(N2N=C1)NCC3=CC=CC=C3)NCCCCCCN
Procedure, shortened: as §1

[12] = compound: CC1=C(C(CC(=O)N1)C2=CC=C(C=C2)C(F)(F)F)C(=O)NC3=C(C=C4C(=C3)C=NN4)F
Procedure, shortened: as §1

[13] = compound: CC1=C(C2=C(C=C1)C(=O)C3=CC=CC=C3N2CCCN)C
Procedure, shortened: as §1

[14] = compound: CC1=C(C=C(C=C1)NC(=O)C2=CC(=CC=C2)C(C)(C)C#N)NC3=CC4=C(C=C3)N=CN(C4=O)C
Procedure, shortened: as §1

[15] = compound: CC1=C(C=C(C=C1)NC(=O)C2=CC(=CC=C2)N(C)C)NC(=O)C3=CC=C(C=C3)O
Procedure, shortened: as §1

[16] = compound: CC1=CC=C(C=C1)SC2=C3C=C(SC3=CN=C2)C(=O)N
Procedure, shortened: as §1

| Target | log2 fold change (erlotinib) | log2 fold change [1] | log2 fold change [2] | log2 fold change [3] | log2 fold change [4] | log2 fold change [5] | log2 fold change [6] | log2 fold change [7] | log2 fold change [8] | log2 fold change (IRAK-1-4 Inhibitor I) | log2 fold change (ibrutinib) | log2 fold change [9] | log2 fold change (ralimetinib) | log2 fold change [10] | log2 fold change [11] | log2 fold change [12] | log2 fold change [13] | log2 fold change [14] | log2 fold change [15] | log2 fold change [16] |
| --- | --- | --- | --- | --- | --- | --- | --- | --- | --- | --- | --- | --- | --- | --- | --- | --- | --- | --- | --- | --- |
| DPP3 (UniProt Q9NY33) | inactive: -0.014 | inactive: 0.053 | inactive: -0.044 | inactive: -0.004 | inactive: 0 | inactive: -0.007 | inactive: 0.013 | inactive: 0.005 | inactive: 0.006 | inactive: 0.006 | inactive: -0.006 | inactive: 0.004 | inactive: -0.011 | inactive: 0.008 | inactive: -0.015 | inactive: -0.027 | inactive: 0.015 | inactive: -0.028 | inactive: -0.006 | inactive: 0.017 |
| EDC3 (UniProt Q96F86) | inactive: -0.008 | inactive: -0.01 | inactive: -0.023 | inactive: -0.02 | inactive: -0.031 | inactive: 0.035 | inactive: -0.011 | inactive: -0.027 | inactive: -0.013 | inactive: 0 | inactive: 0.038 | inactive: 0.016 | inactive: 0.004 | inactive: 0.001 | inactive: 0.046 | inactive: 0.039 | inactive: -0.014 | inactive: 0.009 | inactive: 0.019 | inactive: -0.023 |
| DUSP12 (UniProt Q9UNI6) | inactive: -0.015 | inactive: -0.014 | inactive: 0.005 | inactive: -0.018 | inactive: 0.028 | inactive: -0.009 | inactive: 0.001 | inactive: 0.014 | inactive: 0.009 | inactive: 0.007 | inactive: -0.008 | inactive: -0.011 | inactive: -0.016 | inactive: -0.026 | inactive: -0.012 | inactive: -0.005 | inactive: -0.004 | inactive: 0.011 | inactive: 0 | inactive: 0.001 |
| DST (UniProt Q03001) | inactive: 0.025 | inactive: -0.035 | inactive: 0.046 | inactive: -0.03 | inactive: -0.042 | inactive: 0 | inactive: -0.16 | inactive: -0.046 | inactive: 0 | inactive: 0.04 | inactive: 0.007 | inactive: -0.031 | inactive: -0.034 | inactive: -0.098 | inactive: 0.021 | inactive: -0.052 | inactive: -0.054 | inactive: 0.049 | inactive: 0.063 | inactive: -0.046 |
| DYRK1A (UniProt Q13627) | inactive: -0.061 | inactive: -0.057 | inactive: -0.004 | inactive: 0.186 | inactive: 0.175 | inactive: 0.016 | inactive: 0.084 | inactive: -0.008 | inactive: -0.034 | inactive: -0.046 | inactive: -0.019 | active: 0.264 | inactive: -0.003 | inactive: 0.011 | inactive: 0.01 | inactive: 0.007 | inactive: 0.005 | inactive: -0.007 | inactive: -0.024 | inactive: 0.034 |
| DRG1 (UniProt Q9Y295) | inactive: -0.04 | inactive: 0.014 | inactive: -0.005 | inactive: -0.009 | inactive: -0.004 | inactive: 0.014 | inactive: 0.003 | inactive: -0.011 | inactive: -0.011 | inactive: -0.006 | inactive: -0.005 | inactive: 0.001 | inactive: -0.013 | inactive: 0.007 | inactive: -0.011 | inactive: -0.038 | inactive: -0.024 | inactive: -0.016 | inactive: -0.018 | inactive: 0.012 |
| DUSP9 (UniProt Q99956) | inactive: 0.066 | inactive: 0.101 | inactive: 0 | inactive: -0.239 | inactive: 0.114 | inactive: -0.003 | inactive: 0.26 | inactive: 0.066 | inactive: 0.008 | inactive: -0.053 | inactive: 0 | inactive: 0.049 | inactive: 0.033 | inactive: 0.094 | inactive: 0.134 | inactive: 0.047 | inactive: -0.007 | inactive: -0.001 | inactive: 0.04 | inactive: 0.088 |
| ECD isoform 3 (UniProt O95905) | inactive: 0.04 | inactive: 0.122 | inactive: -0.004 | inactive: -0.015 | inactive: -0.038 | inactive: 0 | inactive: -0.053 | inactive: 0.034 | inactive: 0.106 | inactive: -0.029 | inactive: 0.049 | inactive: -0.019 | inactive: 0.043 | inactive: 0.008 | inactive: 0.019 | inactive: 0.014 | inactive: -0.006 | inactive: -0.013 | inactive: 0.034 | inactive: -0.024 |
| ECHDC3 (UniProt Q96DC8) | inactive: -0.058 | inactive: 0.15 | inactive: 0.028 | inactive: -0.155 | inactive: 0.071 | inactive: 0.048 | inactive: 0.019 | inactive: 0.072 | inactive: -0.051 | inactive: -0.048 | inactive: -0.01 | inactive: -0.023 | inactive: -0.08 | inactive: -0.029 | inactive: -0.014 | inactive: 0.05 | inactive: -0.029 | inactive: 0.007 | inactive: -0.006 | inactive: -0.01 |
| EEF1AKNMT (UniProt Q8N6R0) | inactive: 0.048 | inactive: 0.029 | inactive: -0.02 | inactive: -0.039 | inactive: 0.005 | inactive: 0 | inactive: -0.065 | inactive: 0.011 | inactive: 0.053 | inactive: -0.015 | inactive: -0.016 | inactive: 0.017 | inactive: 0.096 | inactive: 0.023 | inactive: 0.017 | inactive: -0.003 | inactive: -0.024 | inactive: 0.002 | inactive: -0.021 | inactive: 0.002 |
| EHMT2 (UniProt A2ABF8) | inactive: 0.024 | inactive: -0.051 | inactive: -0.007 | inactive: -0.018 | inactive: -0.007 | inactive: -0.008 | inactive: 0.023 | inactive: -0.028 | inactive: 0.017 | inactive: -0.005 | inactive: 0.054 | inactive: 0.002 | inactive: 0.011 | inactive: -0.019 | inactive: -0.009 | inactive: 0.01 | inactive: -0.008 | inactive: 0.004 | inactive: -0.012 | inactive: 0.006 |
| DTNBP1 (UniProt Q96EV8) | inactive: 0.026 | inactive: 0.015 | inactive: 0.004 | inactive: -0.048 | inactive: -0.019 | inactive: 0.016 | inactive: -0.009 | inactive: 0.025 | inactive: 0.009 | inactive: -0.023 | inactive: 0.028 | inactive: 0.007 | inactive: -0.013 | inactive: -0.002 | inactive: 0 | inactive: 0.009 | inactive: 0.011 | inactive: -0.006 | inactive: 0.003 | inactive: -0.005 |
| EEF1A1P5 (UniProt Q5VTE0) | inactive: 0.014 | inactive: -0.054 | inactive: 0.023 | inactive: 0 | inactive: 0.001 | inactive: -0.01 | inactive: -0.065 | inactive: -0.048 | inactive: 0.022 | inactive: 0.003 | inactive: -0.01 | inactive: -0.007 | inactive: 0.001 | inactive: -0.014 | inactive: 0.032 | inactive: 0.008 | inactive: 0.019 | inactive: -0.006 | inactive: 0.012 | inactive: -0.011 |
| EBAG9 isoform 2 (UniProt O00559) | inactive: 0.1 | inactive: 0 | inactive: -0.02 | inactive: 0.051 | inactive: 0.005 | inactive: -0.013 | inactive: -0.024 | inactive: -0.013 | inactive: 0.004 | inactive: 0.165 | inactive: 0.025 | inactive: 0.003 | inactive: 0.102 | inactive: -0.052 | inactive: 0.04 | inactive: -0.001 | inactive: -0.096 | inactive: -0.1 | inactive: 0.067 | inactive: -0.018 |
| ECM1 isoform 4 (UniProt Q16610) | inactive: -0.012 | inactive: 0.063 | inactive: 0.019 | inactive: -0.038 | inactive: 0.097 | inactive: -0.005 | inactive: 0.021 | inactive: 0.014 | inactive: 0.02 | inactive: 0.066 | inactive: -0.043 | inactive: 0.036 | inactive: -0.038 | inactive: 0.017 | inactive: -0.001 | inactive: 0.074 | inactive: -0.006 | inactive: 0.006 | inactive: 0.018 | inactive: -0.012 |
| EAPP (UniProt Q56P03) | inactive: 0.012 | active: 0.349 | inactive: 0.018 | inactive: 0.098 | inactive: 0.073 | inactive: 0.011 | inactive: -0.094 | inactive: 0.024 | inactive: 0.103 | inactive: -0.014 | inactive: -0.105 | inactive: 0.025 | inactive: -0.1 | inactive: -0.059 | inactive: -0.035 | inactive: 0.037 | inactive: -0.037 | inactive: -0.015 | inactive: 0.052 | inactive: -0.042 |

Reprinted at random: 2 records from the list, in no set order.

| Target | log2 fold change (erlotinib) | log2 fold change [1] | log2 fold change [2] | log2 fold change [3] | log2 fold change [4] | log2 fold change [5] | log2 fold change [6] | log2 fold change [7] | log2 fold change [8] | log2 fold change (IRAK-1-4 Inhibitor I) | log2 fold change (ibrutinib) | log2 fold change [9] | log2 fold change (ralimetinib) | log2 fold change [10] | log2 fold change [11] | log2 fold change [12] | log2 fold change [13] | log2 fold change [14] | log2 fold change [15] | log2 fold change [16] |
| --- | --- | --- | --- | --- | --- | --- | --- | --- | --- | --- | --- | --- | --- | --- | --- | --- | --- | --- | --- | --- |
| EEF1A1P5 (UniProt Q5VTE0) | inactive: 0.014 | inactive: -0.054 | inactive: 0.023 | inactive: 0 | inactive: 0.001 | inactive: -0.01 | inactive: -0.065 | inactive: -0.048 | inactive: 0.022 | inactive: 0.003 | inactive: -0.01 | inactive: -0.007 | inactive: 0.001 | inactive: -0.014 | inactive: 0.032 | inactive: 0.008 | inactive: 0.019 | inactive: -0.006 | inactive: 0.012 | inactive: -0.011 |
| EAPP (UniProt Q56P03) | inactive: 0.012 | active: 0.349 | inactive: 0.018 | inactive: 0.098 | inactive: 0.073 | inactive: 0.011 | inactive: -0.094 | inactive: 0.024 | inactive: 0.103 | inactive: -0.014 | inactive: -0.105 | inactive: 0.025 | inactive: -0.1 | inactive: -0.059 | inactive: -0.035 | inactive: 0.037 | inactive: -0.037 | inactive: -0.015 | inactive: 0.052 | inactive: -0.042 |

Reference: the supplement of paper PMC10849652
